Source: paper PMC11180176
No constants are given. Whether binding was seen depends on the method and setting. In cells and extracts the contact can be indirect. These calls come from enrichment with a bait or labelling near it, and not all partners need be listed. Where a sequence is shown, tags or fusion partners need not be part of it.

Protein sequences, listed by entry. Tags and fused reporters are not part of them.
UniProt P20823: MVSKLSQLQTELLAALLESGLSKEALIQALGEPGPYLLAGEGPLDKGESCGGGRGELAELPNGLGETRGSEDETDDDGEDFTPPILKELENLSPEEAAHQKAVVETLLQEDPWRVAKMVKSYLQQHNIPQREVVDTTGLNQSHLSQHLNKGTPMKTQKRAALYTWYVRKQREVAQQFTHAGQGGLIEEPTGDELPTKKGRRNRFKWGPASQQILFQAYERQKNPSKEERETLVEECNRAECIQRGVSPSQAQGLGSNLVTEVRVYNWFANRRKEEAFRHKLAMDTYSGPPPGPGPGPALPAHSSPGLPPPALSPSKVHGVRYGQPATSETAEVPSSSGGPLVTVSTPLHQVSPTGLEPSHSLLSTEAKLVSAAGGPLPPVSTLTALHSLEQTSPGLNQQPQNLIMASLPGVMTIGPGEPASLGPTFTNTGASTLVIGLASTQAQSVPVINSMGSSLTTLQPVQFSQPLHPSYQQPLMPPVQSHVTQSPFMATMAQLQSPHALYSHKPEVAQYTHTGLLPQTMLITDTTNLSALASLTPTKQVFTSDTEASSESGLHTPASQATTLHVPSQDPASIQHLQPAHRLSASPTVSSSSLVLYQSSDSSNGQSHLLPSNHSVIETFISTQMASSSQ

Target: T1, Flag-TRIM8 (Tripartite motif 8) (UniProt Q9BZR9)
T1 sequence: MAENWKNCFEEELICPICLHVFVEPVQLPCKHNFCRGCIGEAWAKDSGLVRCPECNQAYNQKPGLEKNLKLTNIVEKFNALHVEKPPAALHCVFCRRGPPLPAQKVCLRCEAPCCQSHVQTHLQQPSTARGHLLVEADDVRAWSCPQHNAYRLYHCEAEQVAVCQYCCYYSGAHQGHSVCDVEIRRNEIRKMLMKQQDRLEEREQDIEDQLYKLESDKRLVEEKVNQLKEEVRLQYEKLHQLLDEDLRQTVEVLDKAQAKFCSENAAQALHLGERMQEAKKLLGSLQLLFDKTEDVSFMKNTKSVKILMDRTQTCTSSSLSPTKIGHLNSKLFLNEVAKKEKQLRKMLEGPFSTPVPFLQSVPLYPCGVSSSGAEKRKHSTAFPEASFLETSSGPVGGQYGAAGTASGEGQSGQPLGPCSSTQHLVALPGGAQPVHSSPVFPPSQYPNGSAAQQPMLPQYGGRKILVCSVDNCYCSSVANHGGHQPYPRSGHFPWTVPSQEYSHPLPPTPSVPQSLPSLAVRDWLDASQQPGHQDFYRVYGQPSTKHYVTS
Assay: affinity purification with mass spectrometry; HEK293T cells transfected with Flag-TRIM8 or control plasmids; supernatant incubated with anti-Flag affinity gel; washed gel sent for MS; proteins present in the control group counted as non-specific

binding: binds
Substance: HNF1α found by mass spectrometry with Flag-TRIM8 (from UniProt P20823 1-631)
